# In all, about 140,000 compounds went through this assay and about 4,300 (3.1%) were called active. This list was built around the results that the source calls inconclusive (neither active nor inactive); the mix of calls is not that of the screen.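 The calls were made as follows: active = readout at or below -70, meaning at least 70% loss of cells showing the perinucleolar compartment, a nuclear body marking cancer cells; inconclusive = readout between -30 and a set limit; inactive = the rest.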
# Test: High Content Assay for Compounds that inhibit the Assembly of the Perinucleolar Compartment;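 also: plate controls were DMSO wells for no effect and camptothecin positive control wells for full effect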
# Settings: PC3M PTB-GFP, PNC prevalence imaging, 16 h; at 10 µM; hits give low values
# How it was run: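 PC3M cells stably expressing PTB-GFP, 750–1000 cells/well, treated 16 h at 37 °C with compound (23 nl of library stock), in duplicate. After paraformaldehyde fixation and Hoechst stain, imaged at 20x; PNC prevalence scored by image analysis.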
row,SMILES,"activity change (PNC), negative = inhibition"
1,COc1ccc(C2CC(=O)N3CN(c4ccc(C)c(Cl)c4)CSC3=C2C#N)cc1OC (stereo not drawn),inactive: 14.3%
2,COc1ccc(CONS(=O)(=O)c2ccc(NC(C)=O)cc2)cc1Cl,inactive: 6.61%
3,CC(C)c1nnc(NC(=O)CSc2ccccc2)s1,inconclusive: -44.7%
4,COc1ccc(C2/C(=C(/O)c3ccc4c(c3)CC(C)O4)C(=O)C(=O)N2CCN2CCOCC2)cc1 (stereo not drawn),inactive: 21.7%
5,Cc1cccnc1NC(=O)c1ccc2nc(N)sc2c1,inconclusive: -34.9%
6,CCOc1ccccc1C(=O)Nc1ccccc1-c1ccccc1,inactive: 20%
7,Cc1ccc(NC(=S)NC2CC3CCC(C2)N3Cc2ccco2)c(C)c1 (stereo not drawn),inconclusive: -31.8%
8,Cc1ccc(NC(=O)NC2CCN(CC(=O)Nc3nccs3)CC2)cc1,inconclusive: -62.5%
9,COc1ccc2sc(NC(C)=O)nc2c1,inconclusive: -67.9%
10,CC(C)C(NS(=O)(=O)c1cccc2nsnc12)C(=O)NCCC1=CCCCC1 (stereo not drawn),inconclusive: -30.7%
11,O=C(CCCc1nc(-c2ccccc2)no1)NCc1cccnc1,inactive: -5.31%
12,COc1ccccc1NC(=O)CN(c1ccc([N+](=O)[O-])cc1)S(=O)(=O)c1ccccc1,inconclusive: -34.8%
13,O=C(CSc1nccc(=O)[nH]1)Nc1ccc(S(=O)(=O)N2CCOCC2)cc1,inconclusive: -44.7%
14,Cc1ccccc1OCCC(=O)NCCc1ccc(S(N)(=O)=O)cc1,inactive: -2.53%
15,CC(=O)c1cnc2c(-c3ccccc3)cnn2c1C,inconclusive: -30.6%
16,COc1ccc(CCn2c(=S)[nH]c3cc(C(=O)NCc4ccco4)ccc3c2=O)cc1OC,inactive: 19.7%
17,O=C(O)CCCNC(=O)OCc1ccccc1,inactive: -23.8%
18,COc1ccc(OC)c(NC(=O)CSc2nc3ccccc3c(=O)n2CCNC(C)=O)c1,inactive: 284%
19,CCSc1nc2ccccc2n1S(=O)(=O)c1ccccc1,inactive: 21.8%
20,COc1ccc(NC(=O)c2ccco2)c(NC(=O)Cc2cccs2)c1,inconclusive: -53.2%
21,COc1ccc(N2C(=O)CCC(C(=O)NCc3cccnc3)C2c2ccc(OC)c(OC)c2)cc1 (stereo not drawn),inconclusive: -44%
22,COc1ccc(NC(=O)C2CCCN(S(=O)(=O)c3cccs3)C2)cc1OC (stereo not drawn),inactive: -7.78%
23,NS(=O)(=O)c1ccc(NC(=O)CN2CCCCC2)cc1,active: -83.2%
24,COc1ccc(-c2cn(-c3ccc(Br)cc3)c3[n+]2CCS3)cc1,inconclusive: -37.2%

row,SMILES,"activity change (PNC), negative = inhibition"
1,Cc1ccccc1NC(=S)NCCc1ccccn1,inconclusive: -32.4%
2,CCOC(=O)C1CCN(C(=O)c2ccccc2NS(=O)(=O)c2ccc(F)c(F)c2)CC1,inconclusive: -31.5%
3,CC(C)(C)C(=O)CSc1nc2ncc(Br)cc2[nH]1,active: -97.8%
4,O=C(NCC1CCCO1)C1CC(c2ccccc2Cl)=NO1 (stereo not drawn),inactive: -22.5%
5,CC(C(=O)Nc1sc2c(c1C#N)CCCCC2)N1C(=O)c2ccccc2C1=O (stereo not drawn),inconclusive: -46%
6,CCCC1(CCC)NC(=O)NC1=O,inconclusive: -39%
7,O=C(COc1ccc(Cl)cc1)Nc1ccccc1CO,active: -92.3%
8,Clc1ccccc1CSc1nnc(-c2cccnc2)n1Cc1ccco1,inconclusive: -76.1%
9,COc1ccc(CCN(Cc2cccs2)S(=O)(=O)c2ccc(S(=O)(=O)N(C)C3CCCCC3)cc2)cc1OC,inactive: 2.5%
10,O=C(Nc1cccc2ccccc12)N1CCN(Cc2ccc3c(c2)OCO3)CC1,active: -95.4%
11,COc1cc(-c2nnc(COc3ccc4cc(Br)ccc4c3)o2)cc(OC)c1OC,inconclusive: -32.8%
12,CC(=O)Nc1ccc(NC(=O)CSCc2cnn(-c3ccccc3)c2-n2cccc2)cc1,inconclusive: -63.4%
13,C=CCNC(=O)C1CC(=O)N(c2ccc(C)cc2)C1 (stereo not drawn),inconclusive: -34.8%
14,N#CC1=C(N)SC(N)=C(C#N)C1c1ccc([N+](=O)[O-])cc1,inactive: 49.9%
15,COc1ccccc1NC1=C(Cl)C(=O)N(c2ccccc2)C1=O,active: -114%
16,CCCC1=NN(c2ccc([N+](=O)[O-])cc2)C(=O)/C1=C/N(C)C,inconclusive: -46.3%
17,Cc1cc(/C=C2/C(=O)N(C)C(=S)N2C)c(C)n1C1CC1,inactive: 61.5%
18,CCCCNC(=O)c1onc(CSc2ccccc2CC)c1C(=O)O,active: -109%
19,O=C(CCCCCN1C(=O)c2ccccc2C1=O)Nc1ccc(F)cc1,active: -100%
20,CCOC(=O)Cc1csc(NC(=O)CCNS(=O)(=O)c2ccc3c(c2)CCC(=O)N3)n1,inconclusive: -76.6%
21,Cc1[nH]c2ccccc2c1C(=O)COC(=O)c1c(-c2ccccc2)noc1C,active: -121%
22,O=C(NC(NC(=S)Nc1cc(Cl)ccc1Cl)C(Cl)(Cl)Cl)c1ccco1 (stereo not drawn),inactive: 26.2%
23,CC(C)OC(=O)c1nn2c(C(F)(F)F)cc(-c3ccco3)nc2c1Cl,inactive: 73.6%
24,NC(=O)c1cc(-c2ccccc2)nc(N2CCOCC2)n1,inactive: -13.9%

row,SMILES,"activity change (PNC), negative = inhibition"
1,[O-]/[N+](=C/c1ccc(F)cc1)c1ccc(Cl)cc1,inactive: -26.7%
2,CCOC(=O)COc1ccc(S(=O)(=O)NCCC2=CCCCC2)cc1,inconclusive: -57.4%
3,Cc1ccccc1Cn1c(=N)n(CC(=O)c2ccco2)c2ccccc21,inconclusive: -33.1%
4,COc1cc(/C=N/NC(=O)c2cccnc2)ccc1OS(=O)(=O)c1cc(C)ccc1C,inconclusive: -46.5%
5,CCN1CCN(CCCNC(=O)c2cn(CCOC)c(=O)c3c2c2ccccc2n3C)CC1,active: -101%
6,c1ccc(CN2CCN(c3nc(-c4ccccc4)nc4ccccc34)CC2)cc1,inconclusive: -37.6%
7,Cc1cccc(NS(=O)(=O)c2ccc3c(c2)OCCO3)c1,inconclusive: -41.9%
8,COCc1nnc(NC(=O)CSc2ccccc2)s1,inactive: 28%
9,CCOC(=O)c1ccccc1Nc1cc(C)nc2nc(C)nn12,inactive: -9.49%
10,Cn1c(C(=O)NCC2CCCO2)cc2oc3ccccc3c21 (stereo not drawn),inactive: -5.99%
11,CS(=O)(=O)N(CC(=O)N1CCN(Cc2ccccc2)CC1)Cc1ccccc1,inconclusive: -52.6%
12,CCCCCN1C2=NCCN2c2ccccc21,inconclusive: -32.6%
13,CN1c2ccccc2N(C)C1(C)c1cccc2ccccc12,inconclusive: -33.8%
14,COc1ccc(S(=O)(=O)N(CC(=O)N2CCN(c3ccccc3OC)CC2)c2ccccc2)cc1,inactive: 22.5%
15,O=C(CSCc1cnn(-c2ccccc2)c1-n1cccc1)NCc1ccc2c(c1)OCO2,active: -100%
16,Cn1c(NCc2cccs2)nc2ccccc21,inconclusive: -46.2%
17,O=C1c2cccc3c([N+](=O)[O-])ccc(c23)C(=O)N1c1ccccn1,active: -105%
18,Cc1ccc(CSC(Nc2ccc(F)cc2)=C(C#N)C#N)cc1,inconclusive: -44.2%
19,CCn1cc(/C=C/C(=O)Nc2c(C)nn(Cc3ccccc3)c2C)cn1,inconclusive: -36.4%
20,O=C(NCCCNC(=O)c1ccccn1)c1ccccn1,inconclusive: -34.6%
21,COc1ccccc1OCCN1C(=O)S/C(=C\c2ccco2)C1=O,inconclusive: -35.3%
22,CCOc1cc(/C=C/c2ccc3cccc([N+](=O)[O-])c3n2)ccc1O,inactive: -28.1%
23,CCCCN(CC)CCNC(=O)c1cc2c(C)nc3ccccc3c2o1,inconclusive: -31%
24,O=C(/C=C/c1ccco1)N1CCN(c2ccccc2)CC1,inconclusive: -42.8%

row,SMILES,"activity change (PNC), negative = inhibition"
1,CCCn1c(=O)c2ccccc2n2c(SCCOc3ccccc3F)nnc12,inconclusive: -61%
2,CCn1c(C)nc2cc(C(=O)N=Nc3c(O)[nH]c4ccccc34)ccc21,active: -92.6%
3,O=C(Nc1ccccc1)c1cc2ccccc2c(=O)s1,inconclusive: -48.9%
4,O=C(NCc1ccco1)c1cccc(NS(=O)(=O)c2cccc(F)c2)c1,inconclusive: -67.1%
5,COc1ccc(/C=C/C(=O)N2CCCc3ccccc32)cc1,inconclusive: -70.6%
6,CCc1ccccc1OCc1nc2ccc(S(=O)(=O)N3CCOCC3)cc2[nH]1,inactive: -11.8%
7,O=c1oc2c3c4c(cc2s1)CCCN4CCC3,inactive: 7.57%
8,COc1ccc(/C=C2\CCn3c2nc2cc(C(=O)O)ccc2c3=O)cc1O,active: -96.1%
9,COc1ccccc1C(=O)NCC(c1cccnc1)N(C)C (stereo not drawn),inconclusive: -34.2%
10,CC1Cc2ccccc2N1CC(=O)NC(=O)NCc1ccco1 (stereo not drawn),active: -122%
11,Cc1ccc(NC2=C([N+](=O)[O-])CS(=O)(=O)C2)cc1,inconclusive: -55.5%
12,COc1ccc(-c2nnc(SCC(=O)Nc3ncc(C)s3)n2-c2ccccc2)cc1OC,inconclusive: -78.9%
13,Cc1ccc2c(c1)Sc1ccccc1CC2=O,inactive: 34.9%
14,CSc1nc2ccc(NS(=O)(=O)c3ccc(Cl)s3)cc2s1,inactive: -7.1%
15,CCCCCCCCCCCC(=O)N/N=C/c1ccco1,inactive: 3.58%
16,CC(=O)Nc1ccc(OCC(O)CN2CCN(c3ccc(Cl)cc3)CC2)cc1 (stereo not drawn),active: -100%
17,O=C1CC(c2ccccc2)CC(O)=C1C=Nc1ccccc1Cl (stereo not drawn),inconclusive: -35%
18,Cc1ccc(/C(N)=N/OC(=O)COc2ccc(Cl)c(C)c2)cc1,inactive: 48.8%
19,C=CCSc1nc2c(c(=O)[nH]c(=O)n2C)n1C(C)C,inactive: -8.14%
20,COc1cccc(-c2cc(=O)c3cc(NC(=O)c4ccc(N(C)C)cc4)ccc3[nH]2)c1,inconclusive: -56.2%
21,CCOC(=O)c1c(-c2ccccc2)csc1NC(=S)N(CC)CC,inconclusive: -46.2%

# A few values from the results shown:
# Value for COc1ccc(-c2nnc(SCC(=O)Nc3ncc(C)s3)n2-c2ccccc2)cc1OC under activity change (PNC), negative = inhibition: inconclusive: -78.9%
# Value for O=c1oc2c3c4c(cc2s1)CCCN4CCC3 under activity change (PNC), negative = inhibition: inactive: 7.57%

# Molecules shown so far containing a cyano group, in the order listed:
row,SMILES,"activity change (PNC), negative = inhibition"
1,COc1ccc(C2CC(=O)N3CN(c4ccc(C)c(Cl)c4)CSC3=C2C#N)cc1OC (stereo not drawn),inactive: 14.3%
5,CC(C(=O)Nc1sc2c(c1C#N)CCCCC2)N1C(=O)c2ccccc2C1=O (stereo not drawn),inconclusive: -46%
14,N#CC1=C(N)SC(N)=C(C#N)C1c1ccc([N+](=O)[O-])cc1,inactive: 49.9%
18,Cc1ccc(CSC(Nc2ccc(F)cc2)=C(C#N)C#N)cc1,inconclusive: -44.2%
